Experimental data reported in PubChem BioAssay AID190 (DTP/NCI, 2004).
The list shows only some results of the screen, not a fair sample: it covers a few groups of compounds. Not every dose and run of a compound is shown. T/C gives the treated animals as a percentage of the vehicle group. Some entries give survivors of the animals treated and no T/C: the source holds a T/C of zero for them, seemingly a mark for toxic or unscored doses. Some survivor counts are full or nearly so, which does not show that the dose was tolerated: the source hardly ever lists a survival T/C far under the control, and the zero likely stands for such cases as well. Counts of survivors are from the toxicity check (mostly the fifth day) where no day follows; animals may have died later. Schedule codes are those of the source, read here as Q, the interval in days (D) or hours (H), X, the number of doses. Counts like (3×) give the number of equal values in this list. Where survival is the endpoint, this PubChem deposit counts one and a half times the control or more as active, and values a quarter to a half above the control carry no call in these data; other NCI protocols may use other cut-offs. Some T/C values carry the count of animals alive at the toxicity check (mostly the fifth day); without a count or a note in brackets, all were alive then. Some doses were run more than once; the values are given in rising order.

System: AKR/Lw mice, AKR lymphoma ip, median survival T/C
Assay: NCI In Vivo Anticancer Drug Screen. Data for tumor model Lymphoma AKR (Transplanted) (intraperitoneal) in AKR/Lw mice
Conditions: T/C endpoint: median survival time, higher T/C = longer survival
Experimental: The antitumor activity of compounds was measured in mice bearing transplantable tumors. Survival or tumor size were measured and the results are expressed as the measurement made in the treated group (T) divided by the measurement made in the vehicle treated control group (C). The tumor model used in this assay is Lymphoma AKR (Transplanted) (intraperitoneal) in AKR/Lw mice

[1] = dose: 25.0 mg/kg/injection, schedule: Q01DX001 (ip), vehicle: saline
[2] = dose: 25.0 mg/kg/injection, schedule: Q01DX009 (ip), vehicle: saline
[3] = dose: 100.0 mg/kg/injection, schedule: Q01DX009 (ip), vehicle: saline
[4] = dose: 125.0 mg/kg/injection, schedule: Q04DX003 (ip), vehicle: saline

Question: How did the T/C (dose: 12.5 mg/kg/injection, schedule: Q01DX009 (ip), vehicle: Klucel (hydroxypropylcellulose) (HPC)) turn out when `NC(=O)c1[nH]cnc1/N=N\N(CCCl)CCCl` was run?
Answer: 105 % of control

Question: And the T/C (dose: 12.5 mg/kg/injection, schedule: Q04DX003 (ip), vehicle: Klucel (hydroxypropylcellulose) (HPC))?
Answer: 105 % of control

Question: And the T/C (dose: 25.0 mg/kg/injection, schedule: Q01DX001 (ip), vehicle: Klucel (hydroxypropylcellulose) (HPC), evaluated on day 5)?
Answer: 105 % of control

Question: And the T/C (dose: 25.0 mg/kg/injection, schedule: Q01DX001 (ip), vehicle: Klucel (hydroxypropylcellulose) (HPC), evaluated on day 60)?
Answer: 105 % of control

Question: What about the T/C [1] of the same molecule?
Answer: 109 % of control

Question: What about the survivor count [1] of the same molecule?
Answer: 10 of 10

Question: And the T/C (dose: 25.0 mg/kg/injection, schedule: Q01DX009 (ip), vehicle: Klucel (hydroxypropylcellulose) (HPC))?
Answer: 100 [9 of 10 alive], 108, 123 % of control [9 of 10 alive]

Question: What about the T/C [2] of the same molecule?
Answer: 110 % of control

Question: And the survivor count [2]?
Answer: 10 of 10

Question: What about the T/C (dose: 25.0 mg/kg/injection, schedule: Q04DX003 (ip), vehicle: Klucel (hydroxypropylcellulose) (HPC), evaluated on day 30) of the same molecule?
Answer: 102 % of control

Question: And the T/C (dose: 25.0 mg/kg/injection, schedule: Q04DX003 (ip), vehicle: Klucel (hydroxypropylcellulose) (HPC), evaluated on day 60)?
Answer: 94 [9 of 10 alive] and 116 % of control

Question: What about the T/C (dose: 30.0 mg/kg/injection, schedule: Q04DX003 (ip), vehicle: Klucel (hydroxypropylcellulose) (HPC)) of the same molecule?
Answer: 100 % of control

Question: And the T/C (dose: 32.0 mg/kg/injection, schedule: Q01DX005 (ip), vehicle: water)?
Answer: 105 % of control

Question: And the T/C (dose: 37.5 mg/kg/injection, schedule: Q01DX009 (ip), vehicle: Klucel (hydroxypropylcellulose) (HPC))?
Answer: 153 % of control [8 of 10 alive]

Question: And the T/C (dose: 50.0 mg/kg/injection, schedule: Q01DX001 (ip), vehicle: Klucel (hydroxypropylcellulose) (HPC), evaluated on day 5)?
Answer: 108 % of control

Question: And the T/C (dose: 50.0 mg/kg/injection, schedule: Q01DX001 (ip), vehicle: Klucel (hydroxypropylcellulose) (HPC), evaluated on day 60)?
Answer: 102, 108, 127 % of control

Question: What about the T/C (dose: 50.0 mg/kg/injection, schedule: Q01DX001 (ip), vehicle: saline with Tween-80) of the same molecule?
Answer: 100 % of control

Question: What about the T/C (dose: 50.0 mg/kg/injection, schedule: Q01DX001 (ip), vehicle: saline) of the same molecule?
Answer: 105, 107, 116 % of control

Question: What about the T/C (dose: 50.0 mg/kg/injection, schedule: Q01DX009 (ip), vehicle: Klucel (hydroxypropylcellulose) (HPC)) of the same molecule?
Answer: 100 [9 of 10 alive], 114, 119 % of control

Question: What about the T/C (dose: 50.0 mg/kg/injection, schedule: Q01DX009 (ip), vehicle: saline, evaluated on day 45) of the same molecule?
Answer: 102 and 126 % of control

Question: What about the T/C (dose: 50.0 mg/kg/injection, schedule: Q01DX009 (ip), vehicle: saline, evaluated on day 60) of the same molecule?
Answer: 89, 110, 123 % of control [8 of 10 alive]

Question: And the T/C (dose: 50.0 mg/kg/injection, schedule: Q04DX003 (ip), vehicle: Klucel (hydroxypropylcellulose) (HPC), evaluated on day 30)?
Answer: 102 % of control [8 of 10 alive]

Question: What about the T/C (dose: 50.0 mg/kg/injection, schedule: Q04DX003 (ip), vehicle: Klucel (hydroxypropylcellulose) (HPC), evaluated on day 60) of the same molecule?
Answer: 108, 120, 133 % of control

Question: And the survivor count (dose: 50.0 mg/kg/injection, schedule: Q04DX003 (ip), vehicle: Klucel (hydroxypropylcellulose) (HPC))?
Answer: 10 of 10

Question: And the T/C (dose: 50.0 mg/kg/injection, schedule: Q04DX003 (ip), vehicle: saline)?
Answer: 116 % of control

Question: What about the T/C (dose: 62.0 mg/kg/injection, schedule: Q04DX003 (ip), vehicle: Klucel (hydroxypropylcellulose) (HPC)) of the same molecule?
Answer: 105 % of control

Question: What about the T/C (dose: 62.5 mg/kg/injection, schedule: Q04DX003 (ip), vehicle: saline) of the same molecule?
Answer: 109, 120, 128, 134 % of control

Question: And the T/C (dose: 64.0 mg/kg/injection, schedule: Q01DX005 (ip), vehicle: water)?
Answer: 102 and 142 % of control

Question: And the T/C (dose: 75.0 mg/kg/injection, schedule: Q01DX009 (ip), vehicle: Klucel (hydroxypropylcellulose) (HPC))?
Answer: 104 % of control [9 of 10 alive]

Question: What about the T/C (dose: 75.0 mg/kg/injection, schedule: Q01DX009 (ip), vehicle: saline) of the same molecule?
Answer: 100 % of control

Question: What about the T/C (dose: 75.0 mg/kg/injection, schedule: Q04DX003 (ip), vehicle: Klucel (hydroxypropylcellulose) (HPC), evaluated on day 30) of the same molecule?
Answer: 134 % of control

Question: And the T/C (dose: 75.0 mg/kg/injection, schedule: Q04DX003 (ip), vehicle: Klucel (hydroxypropylcellulose) (HPC), evaluated on day 60)?
Answer: 147 % of control

Question: And the T/C (dose: 75.0 mg/kg/injection, schedule: Q04DX003 (ip), vehicle: saline)?
Answer: 111 % of control [9 of 10 alive]

Question: What about the T/C (dose: 85.0 mg/kg/injection, schedule: Q01DX001 (ip), vehicle: Klucel (hydroxypropylcellulose) (HPC), evaluated on day 5) of the same molecule?
Answer: 97 % of control

Question: What about the T/C (dose: 85.0 mg/kg/injection, schedule: Q01DX001 (ip), vehicle: Klucel (hydroxypropylcellulose) (HPC), evaluated on day 60) of the same molecule?
Answer: 97 % of control

Question: And the T/C (dose: 100.0 mg/kg/injection, schedule: Q01DX001 (ip), vehicle: Klucel (hydroxypropylcellulose) (HPC), evaluated on day 5)?
Answer: 117 % of control

Question: And the T/C (dose: 100.0 mg/kg/injection, schedule: Q01DX001 (ip), vehicle: Klucel (hydroxypropylcellulose) (HPC), evaluated on day 60)?
Answer: 100, 117 (2×), 136 % of control

Question: And the T/C (dose: 100.0 mg/kg/injection, schedule: Q01DX001 (ip), vehicle: saline with Tween-80)?
Answer: 108 % of control

Question: What about the T/C (dose: 100.0 mg/kg/injection, schedule: Q01DX001 (ip), vehicle: saline, evaluated on day 45) of the same molecule?
Answer: 113 % of control

Question: What about the T/C (dose: 100.0 mg/kg/injection, schedule: Q01DX001 (ip), vehicle: saline, evaluated on day 60) of the same molecule?
Answer: 109, 110, 121, 123, 130 % of control

Question: What about the T/C (dose: 100.0 mg/kg/injection, schedule: Q01DX009 (ip), vehicle: Klucel (hydroxypropylcellulose) (HPC)) of the same molecule?
Answer: 89 and 103 % of control

Question: And the T/C [3]?
Answer: 102 and 121 % of control

Question: What about the survivor count [3] of the same molecule?
Answer: 10 of 10 (2×)

Question: And the T/C (dose: 100.0 mg/kg/injection, schedule: Q04DX003 (ip), vehicle: Klucel (hydroxypropylcellulose) (HPC), evaluated on day 30)?
Answer: 89 % of control [9 of 10 alive]

Question: And the T/C (dose: 100.0 mg/kg/injection, schedule: Q04DX003 (ip), vehicle: Klucel (hydroxypropylcellulose) (HPC), evaluated on day 60)?
Answer: 90, 91, 120, 136, 141 % of control

Question: What about the T/C (dose: 120.0 mg/kg/injection, schedule: Q01DX001 (ip), vehicle: Klucel (hydroxypropylcellulose) (HPC), evaluated on day 5) of the same molecule?
Answer: 138 % of control

Question: What about the T/C (dose: 120.0 mg/kg/injection, schedule: Q01DX001 (ip), vehicle: Klucel (hydroxypropylcellulose) (HPC), evaluated on day 60) of the same molecule?
Answer: 138 % of control

Question: And the survivor count (dose: 125.0 mg/kg/injection, schedule: Q04DX003 (ip), vehicle: Klucel (hydroxypropylcellulose) (HPC))?
Answer: 10 of 10

Question: What about the T/C [4] of the same molecule?
Answer: 122 [9 of 10 alive], 127, 135 % of control

Question: And the survivor count [4]?
Answer: 10 of 10

Question: What about the T/C (dose: 128.0 mg/kg/injection, schedule: Q01DX005 (ip), vehicle: water) of the same molecule?
Answer: 92 and 142 % of control [9 of 10 alive]

Question: What about the T/C (dose: 130.0 mg/kg/injection, schedule: Q01DX001 (ip), vehicle: Klucel (hydroxypropylcellulose) (HPC), evaluated on day 5) of the same molecule?
Answer: 126 % of control
